PubChem BioAssay AID1159584 | Peter MacCallum Cancer Centre – 2016

- Screen: 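Knock-downs that harm CDH1-null cells more than parental MCF10A cells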 (primary screen)
- Cells: human MCF10A breast epithelial cells, parental and CDH1-null
- Knock-down reagent: siRNA against human genes
- Read-out: 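Cell viability by CellTiter-Glo ATP luminescence, each line scaled to the mean of mock wells across plates, then CDH1-null over parental ratio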
- Direction: CDH1-null / parental viability ratio: higher = CDH1-null cells survive relatively better than parental; CDH1-null viability vs mock: higher = more viable CDH1-null cells; parental viability vs mock: higher = more viable parental cells
In all, the deposit lists about 18,000 reagents; shown is an unselected part. The record does not give: the amount of reagent, the time to read-out.

gene knocked down | CDH1-null / parental viability ratio | CDH1-null viability vs mock (fraction of mock) | parental viability vs mock (fraction of mock)
KCNG1 | 1.11 | 1.15 | 1.04
SPATA13 | 0.98 | 0.94 | 0.96
UCHL5 | 1.1 | 0.79 | 0.72
TIAM2 | 1.03 | 0.38 | 0.37
PLAAT5 | 0.96 | 0.88 | 0.92
DPEP1 | 1.32 | 0.82 | 0.62
ACE | 0.79 | 0.64 | 0.81
PATJ | 1.01 | 0.91 | 0.9
CIAO2A | 1.03 | 0.94 | 0.91
GRID1 | 1.18 | 0.84 | 0.71
MAB21L2 | 0.91 | 0.64 | 0.7
BLMH | 1.39 | 0.92 | 0.66
CWC25 | 0.99 | 0.76 | 0.77
OR2G2 | 1.08 | 1.04 | 0.96
TRIOBP | 1.12 | 0.92 | 0.82
CC2D2B | 1.09 | 0.7 | 0.64
CSN1S1 | 1.15 | 0.46 | 0.4
ANGPTL3 | 0.97 | 0.97 | 1
PLCE1 | 1.03 | 0.8 | 0.78
NOTCH3 | 1.24 | 1.02 | 0.82
MAB21L4 | 1.26 | 0.86 | 0.68
MIR9-1HG | 1.18 | 0.66 | 0.56
ZNF566 | 1.04 | 0.86 | 0.83
WDR19 | 1.05 | 0.6 | 0.57
LONP1 | 1.12 | 0.84 | 0.75
EFCAB6 | 1.05 | 0.98 | 0.93
PPID | 0.73 | 0.72 | 0.99
HBE1 | 1.03 | 0.99 | 0.96
RELA | 0.83 | 0.5 | 0.6
TTC9C | 0.67 | 0.35 | 0.52
PRELID2 | 0.91 | 0.86 | 0.95
RBFA | 0.67 | 0.4 | 0.6
B3GNT6 | 0.96 | 0.95 | 0.99
NCAPD2 | 1.11 | 0.88 | 0.79
ZDHHC20 | 1.04 | 0.81 | 0.78
SLC35A4 | 1.22 | 1.12 | 0.92
DLGAP4 | 0.47 | 0.32 | 0.68
SSPOP | 1.09 | 1.05 | 0.96
PCDHGA5 | 0.96 | 0.78 | 0.81
SLC9A6 | 1.04 | 1.04 | 1
CSF3R | 0.91 | 0.89 | 0.98
RHOXF1 | 1.03 | 0.8 | 0.78

A few values from the entries so far.
For “CDH1-null viability vs mock (fraction of mock)”, DPEP1 is entered as 0.82
For “parental viability vs mock (fraction of mock)”, WDR19 has 0.57
CIAO2A, CDH1-null viability vs mock (fraction of mock) → 0.94
TTC9C, CDH1-null / parental viability ratio → 0.67

Further records:
gene knocked down | CDH1-null / parental viability ratio | CDH1-null viability vs mock (fraction of mock) | parental viability vs mock (fraction of mock)
SLC36A3 | 0.89 | 0.68 | 0.76
UBQLN4 | 1.27 | 0.7 | 0.55
SFRP1 | 0.87 | 0.7 | 0.8
LYST | 0.72 | 0.5 | 0.69
OCM2 | 1.1 | 1.01 | 0.92
ZACN | 1.14 | 0.95 | 0.83
EFCAB7 | 0.76 | 0.8 | 1.05
ZNF43 | 0.74 | 0.54 | 0.73
DNAJC4 | 1.11 | 0.62 | 0.56
TMTC3 | 1.09 | 0.94 | 0.86
BCAN | 0.93 | 0.69 | 0.74
NPBWR1 | 0.9 | 0.88 | 0.98
SMR3B | 1.21 | 0.7 | 0.58
SPDL1 | 1.01 | 0.68 | 0.67
PARP10 | 1.28 | 1.1 | 0.86
MS4A6E | 0.84 | 0.84 | 1
HOXD11 | 0.96 | 0.5 | 0.52
SERPINC1 | 1.13 | 1.02 | 0.9
NCBP1 | 1.06 | 0.52 | 0.49
CFAP91 | 1.13 | 0.95 | 0.84
STAMBP | 1.18 | 0.59 | 0.5
PNMA8B | 1.24 | 0.56 | 0.45
DLGAP5 | 1.27 | 0.99 | 0.78
MRPL49 | 0.79 | 0.6 | 0.76
CDK19 | 0.94 | 0.82 | 0.87
IFT56 | 0.88 | 0.9 | 1.02
